System: hair cells in mouse cochlear explants
Conditions: explant

| Compound | Therapeutic Index LD50/IC50 |
| --- | --- |
| CC[C@H](CO)Nc1nc(NCc2ccccc2O)c2ncn(C(C)C)c2n1 [Compound 9, Olomoucine II] | 11 |
| NS(=O)(=O)c1ccc(N/N=C2\C(=O)Nc3cc(Br)ccc32)cc1 [Compound 12, CDK2 inhibitor II] | 12 |
